The supplement of paper PMC12819154, “High-throughput peptide-centric local stability assay extends protein–ligand identification to membrane proteins, tissues and bacteria” (Nature Structural & Molecular Biology, 2025)
The other results are listed elsewhere or left out. Small differences around the control level are noise.

Chains of the proteins cited; added tags and fusions are not shown. Lines headed by an entry give the natural chain unless they say otherwise; changes in a name come on top.
UniProt Q10471: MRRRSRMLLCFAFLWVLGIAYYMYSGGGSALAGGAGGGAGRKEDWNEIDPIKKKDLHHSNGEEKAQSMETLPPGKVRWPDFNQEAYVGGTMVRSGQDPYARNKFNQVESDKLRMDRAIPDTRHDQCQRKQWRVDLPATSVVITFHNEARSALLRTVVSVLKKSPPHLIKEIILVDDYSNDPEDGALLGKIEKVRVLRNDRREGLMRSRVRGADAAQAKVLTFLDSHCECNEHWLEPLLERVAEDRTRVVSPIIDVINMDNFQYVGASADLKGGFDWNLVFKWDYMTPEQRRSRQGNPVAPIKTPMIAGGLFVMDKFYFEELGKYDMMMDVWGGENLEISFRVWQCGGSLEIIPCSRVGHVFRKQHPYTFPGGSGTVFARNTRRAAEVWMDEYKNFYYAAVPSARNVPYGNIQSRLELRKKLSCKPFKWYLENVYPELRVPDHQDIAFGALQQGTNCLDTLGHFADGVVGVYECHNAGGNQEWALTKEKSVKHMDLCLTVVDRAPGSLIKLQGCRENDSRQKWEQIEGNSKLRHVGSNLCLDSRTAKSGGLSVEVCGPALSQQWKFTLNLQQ
UniProt Q00587: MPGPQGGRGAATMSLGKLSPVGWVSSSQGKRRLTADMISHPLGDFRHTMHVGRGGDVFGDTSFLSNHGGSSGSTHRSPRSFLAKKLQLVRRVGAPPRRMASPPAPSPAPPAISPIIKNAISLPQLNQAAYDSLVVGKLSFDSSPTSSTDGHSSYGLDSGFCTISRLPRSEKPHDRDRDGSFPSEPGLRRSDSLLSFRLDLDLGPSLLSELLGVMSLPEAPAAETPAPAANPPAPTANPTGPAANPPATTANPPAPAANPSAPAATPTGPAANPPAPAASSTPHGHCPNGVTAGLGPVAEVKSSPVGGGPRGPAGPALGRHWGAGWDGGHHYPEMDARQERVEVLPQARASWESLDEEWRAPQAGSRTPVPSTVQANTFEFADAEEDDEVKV
UniProt P84101: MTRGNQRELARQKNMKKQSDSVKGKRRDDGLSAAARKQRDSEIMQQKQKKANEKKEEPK
UniProt Q09328: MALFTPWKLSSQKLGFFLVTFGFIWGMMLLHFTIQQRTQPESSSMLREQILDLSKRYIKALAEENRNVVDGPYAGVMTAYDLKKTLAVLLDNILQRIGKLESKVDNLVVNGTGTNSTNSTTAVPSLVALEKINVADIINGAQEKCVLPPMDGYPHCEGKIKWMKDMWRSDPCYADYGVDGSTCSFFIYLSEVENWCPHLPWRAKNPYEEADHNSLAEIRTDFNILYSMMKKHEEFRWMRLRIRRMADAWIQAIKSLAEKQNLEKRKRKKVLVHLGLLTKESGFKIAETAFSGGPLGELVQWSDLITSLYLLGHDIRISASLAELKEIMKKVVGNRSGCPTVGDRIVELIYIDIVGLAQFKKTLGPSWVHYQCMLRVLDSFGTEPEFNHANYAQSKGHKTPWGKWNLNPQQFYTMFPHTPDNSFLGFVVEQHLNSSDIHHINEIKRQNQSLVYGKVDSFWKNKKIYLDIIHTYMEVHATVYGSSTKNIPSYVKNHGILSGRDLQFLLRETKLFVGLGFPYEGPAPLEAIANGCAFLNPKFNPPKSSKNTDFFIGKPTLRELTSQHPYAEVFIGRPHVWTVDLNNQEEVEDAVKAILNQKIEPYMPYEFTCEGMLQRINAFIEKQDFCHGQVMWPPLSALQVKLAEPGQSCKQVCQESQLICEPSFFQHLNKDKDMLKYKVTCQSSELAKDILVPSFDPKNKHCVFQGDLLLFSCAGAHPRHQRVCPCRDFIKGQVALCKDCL
UniProt Q12802: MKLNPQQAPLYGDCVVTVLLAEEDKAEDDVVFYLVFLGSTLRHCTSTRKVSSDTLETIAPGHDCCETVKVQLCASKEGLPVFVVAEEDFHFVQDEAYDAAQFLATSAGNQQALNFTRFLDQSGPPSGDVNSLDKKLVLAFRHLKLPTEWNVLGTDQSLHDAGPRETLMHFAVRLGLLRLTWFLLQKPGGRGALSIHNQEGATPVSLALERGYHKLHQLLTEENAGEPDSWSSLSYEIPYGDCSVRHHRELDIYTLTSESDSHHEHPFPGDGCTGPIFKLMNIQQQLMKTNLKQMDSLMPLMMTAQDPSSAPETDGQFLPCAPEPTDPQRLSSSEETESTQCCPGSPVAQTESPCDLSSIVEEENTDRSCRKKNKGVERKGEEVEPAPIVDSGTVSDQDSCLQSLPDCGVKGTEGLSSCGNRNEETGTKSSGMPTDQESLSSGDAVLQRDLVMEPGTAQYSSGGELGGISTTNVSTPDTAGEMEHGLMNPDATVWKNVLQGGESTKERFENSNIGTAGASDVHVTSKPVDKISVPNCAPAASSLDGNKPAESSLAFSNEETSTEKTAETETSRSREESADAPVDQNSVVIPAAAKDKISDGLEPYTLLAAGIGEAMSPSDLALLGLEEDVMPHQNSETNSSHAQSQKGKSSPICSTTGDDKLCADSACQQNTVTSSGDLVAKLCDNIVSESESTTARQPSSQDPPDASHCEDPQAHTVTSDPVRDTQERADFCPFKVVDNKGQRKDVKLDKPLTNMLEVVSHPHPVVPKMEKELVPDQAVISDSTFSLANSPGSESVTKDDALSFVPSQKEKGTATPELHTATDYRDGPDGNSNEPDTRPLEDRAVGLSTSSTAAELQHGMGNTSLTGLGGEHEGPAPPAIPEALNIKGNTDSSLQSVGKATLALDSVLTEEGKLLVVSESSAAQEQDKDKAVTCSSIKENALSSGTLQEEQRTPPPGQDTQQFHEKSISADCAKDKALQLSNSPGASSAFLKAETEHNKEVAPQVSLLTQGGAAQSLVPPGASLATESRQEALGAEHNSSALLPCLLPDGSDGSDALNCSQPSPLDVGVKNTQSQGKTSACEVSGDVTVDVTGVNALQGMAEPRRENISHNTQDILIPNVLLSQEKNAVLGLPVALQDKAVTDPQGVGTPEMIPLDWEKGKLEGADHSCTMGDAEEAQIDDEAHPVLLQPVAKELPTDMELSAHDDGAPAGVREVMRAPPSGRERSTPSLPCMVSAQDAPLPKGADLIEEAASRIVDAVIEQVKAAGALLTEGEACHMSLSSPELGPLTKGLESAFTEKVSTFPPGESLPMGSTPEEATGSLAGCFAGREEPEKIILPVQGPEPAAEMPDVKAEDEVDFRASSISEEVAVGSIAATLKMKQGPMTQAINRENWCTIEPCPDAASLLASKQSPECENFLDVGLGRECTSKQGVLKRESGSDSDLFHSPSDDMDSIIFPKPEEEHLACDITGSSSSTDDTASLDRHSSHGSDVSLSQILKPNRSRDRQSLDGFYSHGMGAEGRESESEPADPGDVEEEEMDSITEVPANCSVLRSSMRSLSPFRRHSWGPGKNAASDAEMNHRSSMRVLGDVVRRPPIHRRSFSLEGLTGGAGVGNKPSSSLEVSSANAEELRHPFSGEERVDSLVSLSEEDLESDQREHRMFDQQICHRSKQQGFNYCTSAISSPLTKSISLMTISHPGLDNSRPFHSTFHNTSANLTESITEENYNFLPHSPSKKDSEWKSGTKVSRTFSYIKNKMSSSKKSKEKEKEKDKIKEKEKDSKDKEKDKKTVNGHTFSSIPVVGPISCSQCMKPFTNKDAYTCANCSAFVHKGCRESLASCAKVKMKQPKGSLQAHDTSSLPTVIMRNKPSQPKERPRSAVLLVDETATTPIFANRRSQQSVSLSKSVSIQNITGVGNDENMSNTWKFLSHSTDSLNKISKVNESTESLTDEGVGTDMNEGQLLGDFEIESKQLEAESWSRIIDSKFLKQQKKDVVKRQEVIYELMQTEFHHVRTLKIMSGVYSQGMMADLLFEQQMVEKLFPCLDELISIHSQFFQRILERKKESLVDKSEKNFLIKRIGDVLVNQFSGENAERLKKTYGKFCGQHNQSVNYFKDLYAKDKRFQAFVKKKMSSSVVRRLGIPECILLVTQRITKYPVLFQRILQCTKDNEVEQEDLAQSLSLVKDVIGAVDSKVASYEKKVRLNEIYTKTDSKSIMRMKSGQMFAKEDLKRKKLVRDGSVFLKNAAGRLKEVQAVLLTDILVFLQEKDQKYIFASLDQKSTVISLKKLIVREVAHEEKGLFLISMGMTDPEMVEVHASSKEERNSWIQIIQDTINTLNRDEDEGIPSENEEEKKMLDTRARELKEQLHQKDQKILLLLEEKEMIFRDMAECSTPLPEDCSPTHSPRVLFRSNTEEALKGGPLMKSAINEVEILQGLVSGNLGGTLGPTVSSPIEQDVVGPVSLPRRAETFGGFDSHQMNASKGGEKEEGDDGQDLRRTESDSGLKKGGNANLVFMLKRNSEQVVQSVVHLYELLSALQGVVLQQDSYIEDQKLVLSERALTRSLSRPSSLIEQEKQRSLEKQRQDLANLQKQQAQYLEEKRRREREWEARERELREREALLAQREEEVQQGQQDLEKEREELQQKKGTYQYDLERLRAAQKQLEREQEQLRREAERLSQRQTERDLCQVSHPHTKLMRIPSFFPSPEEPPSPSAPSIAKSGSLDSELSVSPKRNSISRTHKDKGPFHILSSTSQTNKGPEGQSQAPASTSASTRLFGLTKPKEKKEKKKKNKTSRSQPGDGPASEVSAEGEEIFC
UniProt Q12770: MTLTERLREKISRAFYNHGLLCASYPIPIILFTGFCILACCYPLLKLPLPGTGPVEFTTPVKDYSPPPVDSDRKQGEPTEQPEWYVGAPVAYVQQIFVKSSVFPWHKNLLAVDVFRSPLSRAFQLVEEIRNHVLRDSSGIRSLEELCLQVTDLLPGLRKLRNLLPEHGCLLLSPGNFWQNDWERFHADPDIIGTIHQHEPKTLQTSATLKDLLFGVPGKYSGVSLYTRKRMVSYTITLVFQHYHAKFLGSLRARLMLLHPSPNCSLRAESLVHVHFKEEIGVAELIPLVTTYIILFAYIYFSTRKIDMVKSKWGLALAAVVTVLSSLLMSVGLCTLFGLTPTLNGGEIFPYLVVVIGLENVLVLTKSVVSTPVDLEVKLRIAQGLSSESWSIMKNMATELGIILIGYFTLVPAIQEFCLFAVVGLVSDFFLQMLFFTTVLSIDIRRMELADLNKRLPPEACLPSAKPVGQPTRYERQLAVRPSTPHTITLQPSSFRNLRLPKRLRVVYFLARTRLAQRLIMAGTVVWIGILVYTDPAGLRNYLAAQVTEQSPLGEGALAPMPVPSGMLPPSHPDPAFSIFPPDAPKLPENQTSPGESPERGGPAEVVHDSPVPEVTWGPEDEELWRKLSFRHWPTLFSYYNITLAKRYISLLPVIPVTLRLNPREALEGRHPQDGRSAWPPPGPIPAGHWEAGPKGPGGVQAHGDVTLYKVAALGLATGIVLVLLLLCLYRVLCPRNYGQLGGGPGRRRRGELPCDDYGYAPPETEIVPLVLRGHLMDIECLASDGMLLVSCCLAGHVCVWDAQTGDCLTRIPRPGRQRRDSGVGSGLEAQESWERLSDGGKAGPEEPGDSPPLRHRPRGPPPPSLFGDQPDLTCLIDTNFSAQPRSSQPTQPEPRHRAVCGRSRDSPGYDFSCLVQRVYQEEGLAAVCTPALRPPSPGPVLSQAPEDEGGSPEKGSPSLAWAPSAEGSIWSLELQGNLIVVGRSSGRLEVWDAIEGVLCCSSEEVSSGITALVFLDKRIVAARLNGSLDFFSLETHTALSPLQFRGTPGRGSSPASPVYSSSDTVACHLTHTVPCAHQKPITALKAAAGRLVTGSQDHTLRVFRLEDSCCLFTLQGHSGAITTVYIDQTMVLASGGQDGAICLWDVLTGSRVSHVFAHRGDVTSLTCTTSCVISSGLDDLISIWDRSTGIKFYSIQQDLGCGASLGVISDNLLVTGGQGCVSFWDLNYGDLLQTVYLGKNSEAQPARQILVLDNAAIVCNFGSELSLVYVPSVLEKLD
UniProt Q08881: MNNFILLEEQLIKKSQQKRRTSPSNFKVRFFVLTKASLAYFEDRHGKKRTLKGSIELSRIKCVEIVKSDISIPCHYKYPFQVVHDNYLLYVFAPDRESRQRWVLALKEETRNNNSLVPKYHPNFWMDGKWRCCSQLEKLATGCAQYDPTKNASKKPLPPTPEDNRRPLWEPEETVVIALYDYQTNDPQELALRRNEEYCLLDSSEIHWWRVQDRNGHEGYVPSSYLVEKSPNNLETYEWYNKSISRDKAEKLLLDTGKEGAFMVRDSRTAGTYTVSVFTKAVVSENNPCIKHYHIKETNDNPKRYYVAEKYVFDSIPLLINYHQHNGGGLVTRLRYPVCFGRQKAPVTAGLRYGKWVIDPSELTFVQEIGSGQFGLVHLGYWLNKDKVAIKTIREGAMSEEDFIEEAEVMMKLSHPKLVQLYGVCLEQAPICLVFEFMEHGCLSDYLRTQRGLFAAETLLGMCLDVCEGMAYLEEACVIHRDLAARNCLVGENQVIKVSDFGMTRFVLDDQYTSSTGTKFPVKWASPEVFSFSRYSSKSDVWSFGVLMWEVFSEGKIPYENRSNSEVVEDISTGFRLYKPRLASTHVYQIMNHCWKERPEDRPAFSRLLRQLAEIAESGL

compound: Cc1nc(Nc2ncc(C(=O)Nc3c(C)cccc3Cl)s2)cc(N2CCN(CCO)CC2)n1 [dasatinib]; assay: log2 fold change of tryptic peptide abundance, ligand vs vehicle (limited proteolysis) (log2 ratio); higher = more trypsin-susceptible (destabilized); details: ligand concentration: 5 uM; sample: K562 cleared lysate

Question: For “GALNT2 (peptide sequence: KEDWNEIDPIKK, peptide start residue: 42) (UniProt Q10471)”, which log2 fold change is on record?
Answer: Its log2 fold change is -0.355.

Question: “MEF2A (peptide sequence: YTEYNEPHESR, peptide start residue: 69) (UniProt Q02078)” was tested. Which log2 fold change did it give?
Answer: Its log2 fold change is -0.653.

Question: Which log2 fold change does the source give for “HTD2 (peptide sequence: TVMEGWVK, peptide start residue: 152) (UniProt P86397)” here?
Answer: The log2 fold change was 0.285.

Question: How did the log2 fold change turn out when “CDC42EP1 (peptide sequence: DGSFPSEPGLR, peptide start residue: 178) (UniProt Q00587)” was run?
Answer: The log2 fold change was -0.23.

Question: Which log2 fold change does the source give for “UniProt P84101 (peptide sequence: DSEIMQQK, peptide start residue: 40)” here?
Answer: Its log2 fold change is 0.103.

Question: Which log2 fold change does the source give for “MGAT5 (peptide sequence: FNPPKSSK, peptide start residue: 539) (UniProt Q09328)” here?
Answer: The log2 fold change was 0.0325.

Question: For “CLTC (peptide sequence: NNRPSEGPLQTR, peptide start residue: 572) (UniProt Q00610)”, which log2 fold change is on record?
Answer: The log2 fold change was -0.326.

Question: For “AKAP13 (peptide sequence: EKEKDSK, peptide start residue: 484) (UniProt Q12802)”, which log2 fold change is on record?
Answer: Its log2 fold change is 0.518.

Question: Which log2 fold change does the source give for “BNIP1 (peptide sequence: AELLQGGDLLR, peptide start residue: 112) (UniProt Q12981)” here?
Answer: Its log2 fold change is -0.501.

Question: How did the log2 fold change turn out when “SCAP (peptide sequence: QLAVRPSTPHTITLQPSSFR, peptide start residue: 477) (UniProt Q12770)” was run?
Answer: Its log2 fold change is 0.216.

Question: Which log2 fold change does the source give for “ITK (peptide sequence: AEKLLLDTGK, peptide start residue: 249) (UniProt Q08881)” here?
Answer: Its log2 fold change is 0.0663.
